According to article doi:10.1101/2024.06.27.601078:
No constants are given. Whether binding was seen depends on the method and setting. For some of these results: In cells and extracts the contact can be indirect. Some binding calls cover weakened binding; strength is not graded here. For some of these results: Where a sequence is shown, tags or fusion partners need not be part of it.

Tests used:
[1] = target: T1, mouse TMEM16A (mTMEM16A, ac variant) tagged with 3XFlag (mouse) (UniProt Q8BHY3); assay: co-IP
T1 sequence: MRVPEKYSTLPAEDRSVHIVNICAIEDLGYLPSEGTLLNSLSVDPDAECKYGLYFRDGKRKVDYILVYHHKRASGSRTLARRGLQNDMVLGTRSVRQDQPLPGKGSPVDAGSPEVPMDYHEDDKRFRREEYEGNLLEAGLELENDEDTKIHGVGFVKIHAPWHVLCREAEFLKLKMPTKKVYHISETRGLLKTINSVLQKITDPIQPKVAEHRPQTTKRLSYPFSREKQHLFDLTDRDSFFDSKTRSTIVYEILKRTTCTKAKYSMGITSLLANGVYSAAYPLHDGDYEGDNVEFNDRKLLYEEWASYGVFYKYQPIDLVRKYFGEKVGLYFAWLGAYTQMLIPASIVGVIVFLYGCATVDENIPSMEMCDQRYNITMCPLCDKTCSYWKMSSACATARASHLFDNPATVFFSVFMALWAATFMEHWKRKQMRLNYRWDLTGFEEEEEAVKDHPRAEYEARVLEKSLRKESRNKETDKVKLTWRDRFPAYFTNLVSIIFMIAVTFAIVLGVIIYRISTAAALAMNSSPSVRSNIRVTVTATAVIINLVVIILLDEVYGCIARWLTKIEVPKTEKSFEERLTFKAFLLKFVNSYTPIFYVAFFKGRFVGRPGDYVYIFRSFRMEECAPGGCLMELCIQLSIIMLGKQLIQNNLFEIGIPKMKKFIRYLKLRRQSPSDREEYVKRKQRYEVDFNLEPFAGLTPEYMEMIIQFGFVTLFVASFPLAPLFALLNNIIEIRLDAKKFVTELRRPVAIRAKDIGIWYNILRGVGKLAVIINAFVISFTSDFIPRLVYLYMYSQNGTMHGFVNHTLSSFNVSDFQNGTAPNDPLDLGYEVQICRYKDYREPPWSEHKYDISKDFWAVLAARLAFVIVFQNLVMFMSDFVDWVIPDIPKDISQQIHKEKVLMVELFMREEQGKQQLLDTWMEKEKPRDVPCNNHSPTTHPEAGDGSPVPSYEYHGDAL

[2] = target: T2, TMEM16A-VC (UniProt Q8BHY3); assay: split reporter
T2 sequence: T1 sequence

[3] = target: T3, TMEM16A in isolated membranes (UniProt Q8BHY3); assay: in-situ interaction with isolated membranes
T3 sequence: T1 sequence

Row | binding [2] | Substance | further results
1 | – | FKBP12 (from UniProt P62942 1-108) | binding [1]: binds
2 | binds | VN-FKBP12 (from UniProt P62942 1-108) | –
3 | binds | mRFP-FKBP12 (from UniProt P62942 1-108) | –
4 | – | recombinant FKBP12 (from UniProt P62942 1-108) | binding [3]: binds
